Data on one substance can be found in paper PMC8942331.

Chains of the proteins cited; added tags and fusions are not shown.
UniProt P35222: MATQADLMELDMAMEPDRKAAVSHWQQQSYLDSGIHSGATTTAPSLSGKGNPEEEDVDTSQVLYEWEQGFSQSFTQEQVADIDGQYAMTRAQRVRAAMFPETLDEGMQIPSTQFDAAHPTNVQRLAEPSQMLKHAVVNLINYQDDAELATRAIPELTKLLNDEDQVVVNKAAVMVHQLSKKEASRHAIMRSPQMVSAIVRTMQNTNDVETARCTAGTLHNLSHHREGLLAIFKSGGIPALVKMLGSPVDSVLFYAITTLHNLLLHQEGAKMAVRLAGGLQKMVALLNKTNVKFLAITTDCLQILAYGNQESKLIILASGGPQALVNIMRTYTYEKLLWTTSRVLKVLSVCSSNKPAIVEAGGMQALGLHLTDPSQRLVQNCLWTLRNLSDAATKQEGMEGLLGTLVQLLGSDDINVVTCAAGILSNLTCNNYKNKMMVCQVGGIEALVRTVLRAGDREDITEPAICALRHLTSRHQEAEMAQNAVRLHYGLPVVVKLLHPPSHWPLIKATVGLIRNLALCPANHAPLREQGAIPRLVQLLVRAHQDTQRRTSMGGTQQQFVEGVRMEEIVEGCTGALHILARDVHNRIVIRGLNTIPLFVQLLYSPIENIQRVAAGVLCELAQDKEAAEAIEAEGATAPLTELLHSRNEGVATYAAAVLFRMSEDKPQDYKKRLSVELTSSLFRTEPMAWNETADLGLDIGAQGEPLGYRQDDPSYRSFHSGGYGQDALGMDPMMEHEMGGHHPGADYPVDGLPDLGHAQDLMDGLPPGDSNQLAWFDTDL

In the test the target is T1, Vitamin D receptor (human (endogenous in K1 cells)) (UniProt P11473).
T1 sequence: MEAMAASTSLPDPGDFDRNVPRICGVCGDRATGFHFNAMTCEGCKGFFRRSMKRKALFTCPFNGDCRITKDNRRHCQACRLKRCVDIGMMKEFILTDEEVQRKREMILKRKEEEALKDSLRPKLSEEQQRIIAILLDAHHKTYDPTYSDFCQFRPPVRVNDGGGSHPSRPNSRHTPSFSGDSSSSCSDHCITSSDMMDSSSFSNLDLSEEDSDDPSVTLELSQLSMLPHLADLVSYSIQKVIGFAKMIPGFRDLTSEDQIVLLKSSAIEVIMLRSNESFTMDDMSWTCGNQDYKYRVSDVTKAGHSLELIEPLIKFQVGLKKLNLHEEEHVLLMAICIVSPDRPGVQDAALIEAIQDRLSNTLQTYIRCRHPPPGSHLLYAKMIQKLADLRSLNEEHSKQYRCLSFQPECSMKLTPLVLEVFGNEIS
Description: co-IP; membrane protein extracts of K1 cells (100 µg) incubated with 2 µg anti-VDR antibody or rabbit IgG overnight at 4°C, protein G plus/protein A agarose beads, washes with PBS, Western blot for VDR, E-cadherin and β-catenin. Background: A western blot detects proteins with antibodies after separation by electrophoresis.

These are yes or no findings as the source states them, for the method shown. Binding seen in cells or lysates may run through a third protein. Some entries that bind do so weakly or less than the wild type.

Consider β-catenin (from UniProt P35222 1-781), for which the binding entry was “binds”.
